{"source": "the supplement of paper PMC4807443", "note": "Structures can show the parent of a compound that is named as a salt. Some of the results follow. The numbers are fractions of the control, whatever unit the source prints. Most values lie at the level of the controls, where differences are scatter.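 MIN6, a mouse insulinoma beta-cell line, stably carries a lentiviral reporter where Pdx1 and Ins1 promoters each drive a nuclear fluorescent protein; Hoechst staining and automated imaging counted cells. Drugs were candidate hits if Ins1 promoter readout exceeded two median absolute deviations from DMSO controls while Pdx1 activity stayed near normal.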", "data": [{"tested_on": "MIN6", "assay": "% Pdx1+ Ins1+ (double-positive, mature) cells relative to DMSO control (fold of DMSO control); higher = more mature Ins1 promoter-active cells", "conditions": "8.5 µM; 48 h; glucose 5 mM", "values": [{"smiles": "C[C@]12C[C@H](O)[C@H]3[C@@H](CCC4=CC(=O)CC[C@@]43C)[C@@H]1CC[C@@H]2C(=O)CO", "note": "[Corticosterone]", "% Pdx1+ Ins1+": 0.916}, {"smiles": "C/C(=C(\\CCOP(=O)(O)O)SC(=O)c1ccccc1)N(C=O)Cc1cnc(C)nc1N", "note": "[Benfotiamine]", "% Pdx1+ Ins1+": 0.89}, {"smiles": "CCN(CC)C(=S)SSC(=S)N(CC)CC", "note": "[Disulfiram]", "% Pdx1+ Ins1+": 1.11}, {"smiles": "O=c1cc(-c2ccccc2)oc2cc(O)cc(O)c12", "note": "[Chrysin]", "% Pdx1+ Ins1+": 0.932}, {"smiles": "Cc1ccccc1OCC(O)CO", "note": "(stereo not given) [Mephenesin]", "% Pdx1+ Ins1+": 1.05}, {"smiles": "O=C1CN(/N=C/c2ccc([N+](=O)[O-])o2)C(=O)N1", "note": "[Nitrofurantoin]", "% Pdx1+ Ins1+": 1.03}, {"smiles": "CCN(CC)CCOC(=O)C(Cc1cccc2ccccc12)CC1CCCO1", "note": "(stereo not given) [Nafronyl oxalate]", "% Pdx1+ Ins1+": 0.963}, {"smiles": "C[C@H](N)[C@H](O)c1cccc(O)c1", "note": "[Metaraminol bitartrate]", "% Pdx1+ Ins1+": 0.982}, {"smiles": "CCOC(=O)n1ccn(C)c1=S", "note": "[Carbimazole]", "% Pdx1+ Ins1+": 0.882}, {"smiles": "O=C1CN(/N=C/c2ccc(-c3ccc([N+](=O)[O-])cc3)o2)C(=O)N1", "note": "[Dantrolene sodium salt]", "% Pdx1+ Ins1+": 0.941}, {"smiles": "Cc1cc(NS(=O)(=O)c2ccc(N)cc2)no1", "note": "[Sulfamethoxazole]", "% Pdx1+ Ins1+": 1.12}, {"smiles": "CN[C@@H]1[C@@H](O)[C@@H](O[C@@H]2[C@@H](O)[C@H](O[C@H]3OC(CN)=CC[C@H]3N)[C@@H](N)C[C@H]2N)OC[C@]1(C)O", "note": "[Sisomicin sulfate]", "% Pdx1+ Ins1+": 1.01}, {"smiles": "CC1(C)S[C@@H]2[C@H](NC(=O)[C@H](C(=O)O)c3ccsc3)C(=O)N2[C@H]1C(=O)O", "note": "[Ticarcillin sodium]", "% Pdx1+ Ins1+": 0.848}, {"smiles": "CCCC1O[C@@H]2C[C@H]3[C@@H]4CCC5=CC(=O)C=C[C@]5(C)[C@H]4[C@@H](O)C[C@]3(C)[C@]2(C(=O)CO)O1", "note": "(stereo not given in full) [Budesonide]", "% Pdx1+ Ins1+": 1}, {"smiles": "CC(C(=O)O)c1cccc(C(=O)c2ccccc2)c1", "note": "(stereo not given) [Ketoprofen]", "% Pdx1+ Ins1+": 1.09}, {"smiles": "CCCCN(CCCC)CCC(O)c1cc2c(Cl)cc(Cl)cc2c2cc(C(F)(F)F)ccc12", "note": "(stereo not given) [Halofantrine hydrochloride]", "% Pdx1+ Ins1+": 0.838}, {"smiles": "CCOc1cc(CC(=O)N[C@@H](CC(C)C)c2ccccc2N2CCCCC2)ccc1C(=O)O", "note": "[Repaglinide]", "% Pdx1+ Ins1+": 0.921}, {"smiles": "CC(=O)OCC(=O)[C@@]1(O)[C@H](C)C[C@H]2[C@@H]3CCC4=CC(=O)C=C[C@]4(C)[C@@]3(F)[C@@H](O)C[C@@]21C", "note": "[Dexamethasone acetate]", "% Pdx1+ Ins1+": 1.01}, {"smiles": "COc1ncnc(NS(=O)(=O)c2ccc(N)cc2)c1OC", "note": "[Sulfadoxine]", "% Pdx1+ Ins1+": 0.964}, {"smiles": "COc1ccc(C(=O)c2ccccc2)c(O)c1", "note": "[Oxybenzone]", "% Pdx1+ Ins1+": 0.933}, {"smiles": "CCCCCN(CCCCC)C(=O)C(CCC(=O)O)NC(=O)c1ccc(Cl)c(Cl)c1", "note": "(stereo not given) [Lorglumide sodium salt]", "% Pdx1+ Ins1+": 1.04}, {"smiles": "CC(C)(C)NC(=O)[C@@H]1C[C@@H]2CCCC[C@@H]2CN1C[C@@H](O)[C@H](Cc1ccccc1)NC(=O)[C@H](CC(N)=O)NC(=O)c1ccc2ccccc2n1", "note": "[Saquinavir mesylate]", "% Pdx1+ Ins1+": 0.809}, {"smiles": "Nc1nc2c(ncn2COCCO)c(=O)[nH]1", "note": "[Acyclovir]", "% Pdx1+ Ins1+": 0.729}, {"smiles": "C[C@@H]1C[C@H]2[C@@H]3C[C@H](F)C4=CC(=O)C=C[C@]4(C)[C@@]3(Cl)[C@@H](O)C[C@]2(C)[C@H]1C(=O)COC(=O)C(C)(C)C", "note": "[Clocortolone pivalate]", "% Pdx1+ Ins1+": 0.858}, {"smiles": "CNCCCC12CCC(c3ccccc31)c1ccccc12", "note": "[Maprotiline hydrochloride]", "% Pdx1+ Ins1+": 0.778}, {"smiles": "OC(c1cc(C(F)(F)F)nc2c(C(F)(F)F)cccc12)C1CCCCN1", "note": "(stereo not given) [Mefloquine hydrochloride]", "% Pdx1+ Ins1+": 0.395}, {"smiles": "C[C@]12C=CC(=O)C=C1CC[C@H]1[C@@H]3C[C@@H](O)[C@](O)(C(=O)CO)[C@@]3(C)C[C@H](O)[C@@]12F", "note": "[Triamcinolone]", "% Pdx1+ Ins1+": 0.937}, {"smiles": "CC1(C)O[C@@H]2C[C@H]3[C@@H]4CCC5=CC(=O)CC[C@]5(C)[C@@]4(F)[C@@H](O)C[C@]3(C)[C@]2(C(=O)CCl)O1", "note": "[Halcinonide]", "% Pdx1+ Ins1+": 0.776}, {"smiles": "C[C@@H](O)[C@H]1C(=O)N2C(C(=O)O)=C(S[C@@H]3CN[C@H](C(=O)N(C)C)C3)[C@H](C)[C@H]12", "note": "[Meropenem]", "% Pdx1+ Ins1+": 1.03}, {"smiles": "CC(C)NC[C@H](O)COc1cccc2ccccc12", "note": "[(S)-propranolol hydrochloride]", "% Pdx1+ Ins1+": 0.926}, {"smiles": "CC(=O)CCCCn1c(=O)c2c(ncn2C)n(C)c1=O", "note": "[Pentoxifylline]", "% Pdx1+ Ins1+": 1.09}, {"smiles": "CN1C(=O)OC(C)(C)C1=O", "note": "[Trimethadione]", "% Pdx1+ Ins1+": 0.972}, {"smiles": "CN(C/C=C/c1ccccc1)Cc1cccc2ccccc12", "note": "[Naftifine hydrochloride]", "% Pdx1+ Ins1+": 0.912}, {"smiles": "CN(C)CCCSC(=N)N", "note": "[Dimaprit dihydrochloride]", "% Pdx1+ Ins1+": 0.908}, {"smiles": "Cc1onc(-c2c(F)cccc2Cl)c1C(=O)N[C@@H]1C(=O)N2[C@@H]1SC(C)(C)[C@@H]2C(=O)O", "note": "[Flucloxacillin sodium]", "% Pdx1+ Ins1+": 1.02}, {"smiles": "CCN1CCCC(OC(=O)C(c2ccccc2)c2ccccc2)C1", "note": "(stereo not given) [Piperidolate hydrochloride]", "% Pdx1+ Ins1+": 0.903}, {"smiles": "COc1c(C)c2c(c(O)c1C/C=C(\\C)CCC(=O)O)C(=O)OC2", "note": "[Mycophenolic acid]", "% Pdx1+ Ins1+": 0.754}, {"smiles": "CC(=O)NC(CC(=O)O)C(=O)O", "note": "(racemic) [Aspartic acid, N-acetyl (R,S)]", "% Pdx1+ Ins1+": 0.93}, {"smiles": "NS(=O)(=O)c1cc(Cl)c(Cl)c(S(N)(=O)=O)c1", "note": "[Dichlorphenamide]", "% Pdx1+ Ins1+": 1}, {"smiles": "CNC[C@H](O)[C@@H](O)[C@H](O)[C@H](O)CO", "note": "[Meglumine]", "% Pdx1+ Ins1+": 0.886}, {"smiles": "Nc1ccc(S(=O)(=O)Nc2cnc3ccccc3n2)cc1", "note": "[Sulfaquinoxaline sodium salt]", "% Pdx1+ Ins1+": 0.836}, {"smiles": "C[C@H]1NC(=O)NC1=O", "note": "[Methylhydantoin-5-(D)]", "% Pdx1+ Ins1+": 1.05}, {"smiles": "Cc1ccnc(NS(=O)(=O)c2ccc(N)cc2)n1", "note": "[Sulfamerazine]", "% Pdx1+ Ins1+": 0.772}, {"smiles": "N=C(N)NCc1cccc(I)c1", "note": "[Iobenguane sulfate]", "% Pdx1+ Ins1+": 0.769}, {"smiles": "COc1ccc(C[C@H](N)C(=O)N[C@H]2[C@@H](O)[C@H](n3cnc4c(N(C)C)ncnc43)O[C@@H]2CO)cc1", "note": "[Puromycin dihydrochloride]", "% Pdx1+ Ins1+": 0.279}, {"smiles": "CC(C)n1c(/C=C/C(O)CC(O)CC(=O)O)c(-c2ccc(F)cc2)c2ccccc21", "note": "(stereo not given) [Fluvastatin sodium salt]", "% Pdx1+ Ins1+": 0.897}, {"smiles": "CC(=O)Oc1ccccc1C(=O)Oc1ccccc1C(=O)O", "note": "[Acetylsalicylsalicylic acid]", "% Pdx1+ Ins1+": 1.08}, {"smiles": "CCCCNc1cc(C(=O)O)cc(S(N)(=O)=O)c1Oc1ccccc1", "note": "[Bumetanide]", "% Pdx1+ Ins1+": 1.04}, {"smiles": "CNC(=O)c1c(I)c(C(=O)NCC(=O)Nc2c(I)c(C(=O)O)c(I)c(C(=O)NCCO)c2I)c(I)c(N(C)C(C)=O)c1I", "note": "[Ioxaglic acid]", "% Pdx1+ Ins1+": 0.985}, {"smiles": "CC[C@H](C)C(=O)O[C@H]1C[C@@H](C)C=C2C=C[C@H](C)[C@H](CC[C@@H]3C[C@@H](O)CC(=O)O3)[C@H]21", "note": "[Lovastatin]", "% Pdx1+ Ins1+": 0.883}, {"smiles": "Cc1c(C)c2c(c(C)c1O)CCC(C)(C(=O)O)O2", "note": "(stereo not given) [Trolox]", "% Pdx1+ Ins1+": 0.926}, {"smiles": "CC(C)=CCC/C(C)=C/CC/C(C)=C/CC/C(C)=C/CC/C(C)=C/CC/C(C)=C/CC1=C(C)C(=O)c2ccccc2C1=O", "note": "[Vitamin K2]", "% Pdx1+ Ins1+": 0.888}, {"smiles": "CCN(CC)CCOC(=O)c1ccc(N)cc1", "note": "[Procaine hydrochloride]", "% Pdx1+ Ins1+": 1.05}, {"smiles": "CC(=O)O[C@H]1C[C@@]2(C)[C@@H](C[C@@H](O)[C@H]3[C@@]4(C)CC[C@@H](O)[C@@H](C)[C@@H]4CC[C@@]32C)/C1=C(\\CCC=C(C)C)C(=O)O", "note": "[Fusidic acid sodium salt]", "% Pdx1+ Ins1+": 1.05}, {"smiles": "CN(C)CCn1nnnc1SCC1=C(C(=O)O)N2C(=O)[C@@H](NC(=O)Cc3csc(N)n3)[C@H]2SC1", "note": "[Cefotiam hydrochloride]", "% Pdx1+ Ins1+": 0.774}, {"smiles": "CC(=O)O[C@]1(C(C)=O)CC[C@H]2[C@@H]3C=C(C)C4=CC(=O)CC[C@@H]4[C@H]3CC[C@@]21C", "note": "[Nomegestrol acetate]", "% Pdx1+ Ins1+": 1.02}, {"smiles": "NS(=O)(=O)c1cc2c(cc1Cl)N=C(CSCc1ccccc1)NS2(=O)=O", "note": "[Benzthiazide]", "% Pdx1+ Ins1+": 0.937}, {"smiles": "O=C1C(CC[S+]([O-])c2ccccc2)C(=O)N(c2ccccc2)N1c1ccccc1", "note": "(stereo not given) [Sulfinpyrazone]", "% Pdx1+ Ins1+": 1.11}, {"smiles": "C[C@]12C=CC(=O)C=C1CC[C@@H]1[C@@H]2[C@@H](O)C[C@@]2(C)[C@H]1CC[C@]2(O)C(=O)CO", "note": "[Prednisolone]", "% Pdx1+ Ins1+": 1.05}, {"smiles": "CS(=O)(=O)c1ccc([C@@H](O)[C@@H](CO)NC(=O)C(Cl)Cl)cc1", "note": "[Thiamphenicol]", "% Pdx1+ Ins1+": 0.955}, {"smiles": "CC(C)Cc1ccc([C@H](C)C(=O)O)cc1", "note": "[S-(+)-ibuprofen]", "% Pdx1+ Ins1+": 1.11}, {"smiles": "CC(=O)Oc1cc(C(F)(F)F)ccc1C(=O)O", "note": "[Triflusal]", "% Pdx1+ Ins1+": 0.959}, {"smiles": "O=C(O)Cc1ccccc1Nc1c(Cl)cccc1Cl", "note": "[Diclofenac sodium]", "% Pdx1+ Ins1+": 1.04}, {"smiles": "CN1CCN(CCCN2c3ccccc3Sc3ccc(S(=O)(=O)N(C)C)cc32)CC1", "note": "[Thioproperazine dimesylate]", "% Pdx1+ Ins1+": 1.02}, {"smiles": "COC(=O)C1=C(C)NC(C)=C(C(=O)OC)C1c1ccccc1[N+](=O)[O-]", "note": "[Nifedipine]", "% Pdx1+ Ins1+": 1.19}, {"smiles": "Cc1cc(NC(=O)C2=C(O)c3ccccc3S(=O)(=O)N2C)no1", "note": "[Isoxicam]", "% Pdx1+ Ins1+": 1.13}, {"smiles": "Cc1cc(C(C)(C)CC(C)(C)C)ccc1OCCOCC[N+](C)(C)Cc1ccccc1", "note": "[Methyl benzethonium chloride]", "% Pdx1+ Ins1+": 0.0827}, {"smiles": "CN(C)CCCN1c2ccccc2CCc2ccc(Cl)cc21", "note": "[Clomipramine hydrochloride]", "% Pdx1+ Ins1+": 0.927}, {"smiles": "CO[C@@]1(NC(=O)C2SC(=C(C(N)=O)C(=O)O)S2)C(=O)N2C(C(=O)O)=C(CSc3nnnn3C)CS[C@@H]21", "note": "(stereo not given in full) [Cefotetan]", "% Pdx1+ Ins1+": 0.982}, {"smiles": "CCN(CC)CCOC(=O)C1(c2ccc([N+](=O)[O-])cc2)CCCC1", "note": "[Nitrocaramiphen hydrochloride]", "% Pdx1+ Ins1+": 0.932}]}]}
